Values joined by “and” are separate entries in the source; they are usually repeats but may differ in a detail not shown here. Equal values may be shown once. Screen size: about 300,000 compounds; about 3,700 (1.2%) were called active. The shares of active, inactive and inconclusive entries below differ from those in the screen. The call rests on the fitted dose curve; tested in HEK293 cells. A potency beside an inconclusive call is a rough fit, not a confirmed value.
Test: qHTS for Inhibitors of binding or entry into cells for Lassa Virus; further: nearly all actives have a fitted effect of over 50% in size
Conditions: Lassa virus pseudotype entry inhibition, cell reporter; activity change, negative = inhibition: at 37.9 µM (top of the series) unless noted
On the % scale 0 is the no-effect control and ±100 the full control effect; potency means the concentration at half of the fitted maximal effect.

Row | Compound | Potency | activity change, negative = inhibition
1 | CCN(c1ccccc1)S(=O)(=O)c1c(C)noc1C | inconclusive: 0.631 µM [activator, full curve, poor fit] | 
2 | Cc1cccc(N=C2Sc3nc4c(C)c(C)ccc4cc3CN2CCN2CCOCC2)c1 | active: 23.1 µM | 
3 | Nc1cc2[nH]c(=O)c3ccccc3c2cc1Br |  | inactive: 9.38%
4 | O=C(CN1CCCC1)Nc1ccc(Oc2ccc(NC(=O)CN3CCCC3)cc2)cc1 | active: 13 µM | 
5 | O=C(NNc1nc(-c2ccccc2)cs1)c1ccccc1 | inconclusive: 25.1 µM [inhibitor, single point] | 
6 | Cc1ccc(NC(=O)c2ccnc(C(C)(C)C)c2)cc1 | inconclusive: 11.6 µM [inhibitor, partial curve, poor fit] | 
7 | CCCCCOC(=O)CCN1C(=O)/C(=C2\SC(=S)N(CCC(=O)OCCCCC)C2=O)SC1=S | inconclusive: 0.282 µM [inhibitor, full curve, poor fit] | 
8 | COc1ccccc1NC(=O)C1=C(C)Nc2ncnn2C1c1sccc1C (centres undefined) | inconclusive: 35.5 µM [activator, single point] | 
9 | Clc1ccc(N2CCN(c3cnc4ccccc4n3)CC2)cc1 |  | inactive: 1.44%
10 | CC(=O)c1cc(CC(=O)N2CCc3c([nH]c4ccccc34)C2c2ccccn2)cs1 (centres undefined) | inconclusive: 10 µM [inhibitor, partial curve] | 
11 | CCC(CC)c1nn2c(N)c(/C=C3\C(C)=Nc4ccccc43)c(=O)nc2s1 |  | inactive: -0.662%
12 | Fc1ccc(-c2ncn(C3CCNCC3)c2-c2ccnc(Oc3ccc(F)c(F)c3)n2)cc1 | active: 22.3 µM | 
13 | O=C(C1CCN(C2CCN(Cc3ccc4c(c3)CCO4)CC2)CC1)N1CCCC1 |  | inactive: -5.18% [at 46.1 µM]
14 | C[C@H](NC(=O)c1ccco1)C(=O)Nc1ccc(C#N)cc1 |  | inactive: 4.78% [at 46.1 µM]
15 | Cc1ccccc1CNC(=O)Cn1cc2c(n1)-c1c(oc(C(=O)N3CCCC3)c1C)CC2 | inconclusive: 11.2 µM [inhibitor, single point] | 
16 | O=C(c1ccc(NS(=O)(=O)c2cccs2)cc1)N1CCOCC1 |  | inactive: 9.16%
17 | CC(C)(C)c1ccc(S(=O)(=O)N2CCC(c3ccncc3)CC2)cc1 | inconclusive: 6.31 µM [inhibitor, full curve, poor fit] | 
18 | CCCN1C2CCCC1CC(NC(=O)Nc1cccc(C(C)=O)c1)C2 (centres undefined) |  | inactive: 20.4%
19 | CCCC(=O)Nc1ccc2c(c1)nc(CN1CCN(C(=O)OCC)CC1)n2C |  | inactive: -11.1% [at 46.1 µM]
20 | CC1=CC(C)(C)n2c(O)c(N=NC(N)=S)c3cc(C)cc1c32 |  | inactive: 14.5%
21 | Cc1ccc2c(C)c(C(=O)Nc3nnc(C)s3)oc2c1 |  | inactive: -8.71%
22 | O=C(c1ccco1)N1CCN(c2ncnc3c(-c4ccccc4)nsc23)CC1 | inconclusive: 20.6 µM [activator, single point] | 
23 | COc1ccc(-n2cc(C(=O)Nc3ccccc3C#N)c3ccccc3c2=O)cc1 | inconclusive: 35.5 µM [activator, single point] | 

A draw from above in order of SMILES length, high to low.
Row | Compound | Potency | activity change, negative = inhibition
19 | CCCC(=O)Nc1ccc2c(c1)nc(CN1CCN(C(=O)OCC)CC1)n2C |  | inactive: -11.1% [at 46.1 µM]
20 | CC1=CC(C)(C)n2c(O)c(N=NC(N)=S)c3cc(C)cc1c32 |  | inactive: 14.5%
18 | CCCN1C2CCCC1CC(NC(=O)Nc1cccc(C(C)=O)c1)C2 (centres undefined) |  | inactive: 20.4%

Additional structures follow.

Row | Compound | Potency | activity change, negative = inhibition
24 | O=C(NCC1(N2CCCCC2)CCCCC1)c1ccc(NS(=O)(=O)c2ccccc2)cc1 |  | inactive: -6%
25 | O=[N+]([O-])c1ccc(NC(=S)NCCc2ccc(F)cc2)cc1 | inconclusive: 35.5 µM [inhibitor, single point] | 
26 | Cc1cc(NC(=O)CCc2ccccc2)c([N+](=O)[O-])cc1C | inconclusive: 12.6 µM [inhibitor, single point] | 
27 | Cc1cc(O)c(C)c(O)c1/C=N/NC(=O)c1cccnc1 | inconclusive: 35.5 µM [inhibitor, single point] | 
28 | CCCN1Cc2cccc(C(N)=O)c2C1=O | inconclusive: 0.562 µM [activator, partial curve, poor fit] | 
29 | Cc1cc(-n2c(SCc3ccccc3F)nc3n[nH]c(C)c3c2=N)ccc1Cl | inconclusive: 22.4 µM [inhibitor, single point] | 
30 | CC(C)c1cccc(C(C)C)c1NC(=O)COC(=O)C1CCC1 |  | inactive: -4.49%
31 | CC(=O)N1N=C(c2cccc(Cl)c2)OC1c1cccc([N+](=O)[O-])c1 (centres undefined) | inconclusive: 31.6 µM [inhibitor, single point] | 
32 | Cc1ccc(C(=O)OCC(=O)N2c3ccccc3NC(=O)C2(C)C)cc1S(=O)(=O)N1CCCCC1 |  | inactive: 0.45% [at 46.1 µM]
33 | O=C(Cc1ccccc1)Nc1ccc(C(=O)O)cc1 |  | inactive: -19.9% [at 14.3 µM]
34 | COCCNC(=O)c1c(NC(=O)c2ccco2)n(Cc2ccccc2)c2nc3ccccc3nc12 | inconclusive: 5.01 µM [inhibitor, partial curve, poor fit] | 
35 | CCN(CC(=O)NCc1ccc(F)cc1)C(=O)C1CCN(C(=O)Nc2ccccc2)CC1 | inconclusive: 11.6 µM [activator, partial curve, poor fit] | 
36 | CCCCOc1ccc(/C=N/NC(=S)Nc2cccc(C)c2C)cc1 | inconclusive: 1.83 µM [inhibitor, partial curve, poor fit] | 
37 | O=C(CN(c1ccccc1F)S(=O)(=O)c1ccccc1)NC1CCCCCC1 |  | inactive: -12.8%
38 | Nc1ccccc1C(=O)NNC(=O)C(=O)/C=C(\O)c1ccccc1 | inconclusive: 3.55 µM [activator, partial curve, poor fit] | 
39 | O=C(c1ccccc1F)N(Cc1cccnc1)Cc1cc2cc3c(cc2[nH]c1=O)OCCO3 | inconclusive: 35.5 µM [inhibitor, single point] | 
40 | Cc1cc(NC(=O)c2cccc(S(=O)(=O)N3CCCC3)c2)no1 |  | inactive: -11.3% [at 14.3 µM]
41 | CCCc1cc2c(=O)c(-c3ccccn3)c(C)oc2cc1O |  | inactive: 24.7%
42 | Cc1ccc(CNC(=O)c2cnn(-c3ccc(F)cc3F)c2C2CCN(C(=O)OC(C)(C)C)CC2)cc1 | inconclusive: 11.2 µM [inhibitor, partial curve, poor fit] | 
43 | O=C(CN1CCCC1c1ccc2c(c1)OCCO2)NC(=O)Nc1ccccc1F (centres undefined) |  | inactive: -3.93%
44 | CCOc1ccc(OCC)c(NC(=O)CSc2nc3c(c(=O)n(C)c(=O)n3C)n2C(C)C)c1 | inconclusive: 13 µM [inhibitor, partial curve, poor fit] | 
45 | COc1cc(Cl)c(NC(=O)CN(C)S(=O)(=O)c2ccc3[nH]c4c(c3c2)CCCC4)c(OC)c1 |  | inactive: -23.9% [at 46.1 µM]
46 | COc1cccc(CNC(=O)c2cccc(NC(=O)c3nsc4ccccc34)c2)c1 | inconclusive: 35.5 µM [inhibitor, single point] | 

Row | Compound | Potency | activity change, negative = inhibition
47 | CN1CCc2cc(NC(=O)Nc3cccnc3)ccc21 | inconclusive: 7.3 µM [activator, partial curve] | 
48 | COc1cc(Br)cc(/C=N/NC(=O)Cc2ccc(C(F)(F)F)cc2[N+](=O)[O-])c1O | inconclusive: 35.5 µM [inhibitor, single point] | 
49 | Clc1ccccc1CN(Cc1ccccc1)c1ncnc2nc[nH]c12 | inconclusive: 1.26 µM [activator, single point] | 
50 | COc1ccc(/C=N/Nc2nnc(C)n2N)cc1OC | inconclusive: 35.5 µM [inhibitor, single point] | 
51 | C/C(=N\NC(=O)Cn1cnc2ccccc21)c1cccs1 |  | inactive: -12.4% [at 46.1 µM]
52 | Cc1cccc(C(=O)Nc2sc3c(c2C(=O)O)CCCC3)c1 | inconclusive: 3.16 µM [inhibitor, full curve] and inconclusive: 1.12 µM [inhibitor, full curve] | 
53 | Cc1ccc(NC(=S)N(CCN(C)C)Cc2cc3cc(C)ccc3[nH]c2=O)cc1 | inconclusive: 0.708 µM [inhibitor, full curve, poor fit] | 
54 | COc1ccc(-n2c3c(cc(C(=O)Nc4cccc(C)n4)c2=O)C(=O)CC(C)(C)C3)cc1 | inconclusive: 15.8 µM [inhibitor, single point] | 
55 | Cc1ccccc1NC(=S)NCCSc1ccc(Cl)cc1 | inconclusive: 25.1 µM [inhibitor, partial curve, poor fit] | 
56 | O=C(N/N=C/c1cn(-c2cccs2)nc1-c1ccccc1)c1ccccc1Cl | inconclusive: 35.5 µM [inhibitor, single point] | 
57 | CCOc1cc(/C=C2\SC(=O)N=C2N)ccc1O | inconclusive: 29.1 µM [inhibitor, single point] | 
58 | COCCCn1c(=O)c2ccccc2n(Cc2ccccc2C)c1=O |  | inactive: 21.7%
59 | O=[N+]([O-])c1cccc(C2NCC(c3ccccc3Cl)c3c2[nH]c2ccccc32)c1 (centres undefined) | active: 14.1 µM | 
60 | Cc1nn2c(=O)cc(COC(=O)c3ccc(NC(=O)c4ccc(C(C)(C)C)cc4)cc3)nc2s1 | inconclusive: 10 µM [activator, partial curve, poor fit] | 
61 | CCOC(=O)c1ccc(NC(=O)C2(N3C(=O)c4ccccc4C3=O)CCCC2)cc1 | inconclusive: 7.08 µM [activator, full curve] | 
62 | O=C(c1cnc2nc3ccccc3n2c1)c1cc(F)ccc1O | inconclusive: 2.82 µM [activator, partial curve, poor fit] | 
63 | S=C(Nc1ccc(Cl)cc1)NC1CC2CCCC(C1)N2C1CCCC1 (centres undefined) | inconclusive: 32.6 µM [inhibitor, single point] | 
64 | COc1ccc([C@H]2[C@H](C(=O)OC(C)(C)C)N3N=Cc4ccccc4C3C23C(=O)c2ccccc2C3=O)c(OC)c1 (some centres undefined) |  | inactive: -11%
65 | COc1ccc(O)c(CN2CC3CCC(CC3)C2)c1 |  | inactive: 3.84%
66 | O=C(COc1ccccc1)N1CCN(CCN2C(=O)c3cccc4cccc(c34)C2=O)CC1 | inconclusive: 3.16 µM [inhibitor, single point] | 
67 | COc1cccc(CNC(=O)CCS(=O)(=O)c2cc3c4c(c2)CCN4C(=O)CC3)c1 |  | inactive: 22.9% [at 46.1 µM]
68 | COc1cc(-c2nc3cnccn3c2Nc2ccc(C(C)C)cc2)ccc1O | inconclusive: 29.1 µM [inhibitor, single point] and inconclusive: 17.8 µM [inhibitor, single point] | 
69 | CNC(=O)N(C1=NCC(C)S1)c1ccc(F)cc1F (centres undefined) | inconclusive: 5.17 µM [inhibitor, partial curve] | 

Retrieved by compound from above:
Row | Compound | Potency | activity change, negative = inhibition
68 | COc1cc(-c2nc3cnccn3c2Nc2ccc(C(C)C)cc2)ccc1O | inconclusive: 29.1 µM [inhibitor, single point] and inconclusive: 17.8 µM [inhibitor, single point] | 
53 | Cc1ccc(NC(=S)N(CCN(C)C)Cc2cc3cc(C)ccc3[nH]c2=O)cc1 | inconclusive: 0.708 µM [inhibitor, full curve, poor fit] | 
65 | COc1ccc(O)c(CN2CC3CCC(CC3)C2)c1 |  | inactive: 3.84%
